Assay results from paper PMC7471661.
These are yes or no findings as the source states them, for the method shown. In cells and extracts the contact can be indirect. Some results given as binding are weak or reduced against the parent protein; the word gives no strength.

Amino acid sequences for entries named in this document (tags omitted).
UniProt P49841: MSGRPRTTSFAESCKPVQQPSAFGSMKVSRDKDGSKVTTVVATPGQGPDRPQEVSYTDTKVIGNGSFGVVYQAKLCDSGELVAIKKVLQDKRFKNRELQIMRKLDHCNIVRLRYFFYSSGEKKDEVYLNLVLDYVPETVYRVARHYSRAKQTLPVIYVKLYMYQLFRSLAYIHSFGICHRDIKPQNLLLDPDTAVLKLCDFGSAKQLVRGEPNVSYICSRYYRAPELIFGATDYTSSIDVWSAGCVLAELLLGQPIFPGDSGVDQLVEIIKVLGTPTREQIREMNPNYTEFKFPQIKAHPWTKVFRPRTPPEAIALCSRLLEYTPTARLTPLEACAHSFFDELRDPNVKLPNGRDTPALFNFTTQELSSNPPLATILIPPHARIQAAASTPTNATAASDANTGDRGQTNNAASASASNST

Target: T1, peroxisome proliferator-activated receptor coactivator (PGC1α) (human (endogenous in H1299)) (UniProt Q9UBK2)
T1 sequence: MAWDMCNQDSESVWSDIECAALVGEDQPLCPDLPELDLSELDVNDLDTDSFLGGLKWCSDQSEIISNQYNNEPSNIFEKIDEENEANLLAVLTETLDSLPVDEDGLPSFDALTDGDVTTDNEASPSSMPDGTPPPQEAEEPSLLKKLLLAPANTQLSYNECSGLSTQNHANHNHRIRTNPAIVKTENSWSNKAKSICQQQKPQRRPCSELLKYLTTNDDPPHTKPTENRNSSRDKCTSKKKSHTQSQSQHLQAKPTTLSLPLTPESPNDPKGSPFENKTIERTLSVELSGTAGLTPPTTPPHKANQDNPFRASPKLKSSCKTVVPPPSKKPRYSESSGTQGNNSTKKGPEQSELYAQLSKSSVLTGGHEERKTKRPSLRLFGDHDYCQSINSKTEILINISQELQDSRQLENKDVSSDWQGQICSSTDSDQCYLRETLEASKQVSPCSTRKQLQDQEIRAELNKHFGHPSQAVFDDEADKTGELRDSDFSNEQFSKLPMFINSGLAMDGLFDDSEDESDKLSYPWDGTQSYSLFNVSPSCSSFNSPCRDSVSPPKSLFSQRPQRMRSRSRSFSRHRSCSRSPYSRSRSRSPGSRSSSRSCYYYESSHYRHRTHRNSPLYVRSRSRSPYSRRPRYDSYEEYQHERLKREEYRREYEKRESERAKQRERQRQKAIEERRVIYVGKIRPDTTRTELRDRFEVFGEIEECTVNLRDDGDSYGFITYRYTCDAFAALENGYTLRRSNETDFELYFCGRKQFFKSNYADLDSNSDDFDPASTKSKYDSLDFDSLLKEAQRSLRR
Assay: co-IP; H1299 cells transfected with p53 or empty vector for 48 h, with or without GSK-3β inhibitor CHIR99021 (5 μM); NP40 lysis buffer; immunoprecipitation with anti-PGC1α antibody overnight at 4°C, protein A/G agarose beads; blot with anti-GSK-3β and anti-PGC1α

glycogen synthase kinase (GSK-3β) (from UniProt P49841 1-420) (enzyme)
binding: binds
